Patent US10106783B2, “HCV culture systems and direct-acting antiviral sensitivity” (Hvidovre Hospital, priority 2013, dated 2018)
For part of these data: At least one compound was matched to its structure with a doubt left. Some entries repeat one wording, which the source may state once for all of them. Some of these results come from one statement about several compounds together.

Assays:
Format in all cases: cell-based, hepatitis C virus
[1] = test system: 3a(S52) 5'UTR-NS5A recombinant virus; assay: High-throughput DAA treatment assay of infected Huh7.5 cells, 3a(S52)5-5A virus; settings: compared with MK-5172
Experimental: (§1) Huh7.5 cells in 96-well culture plates were infected with 5′UTR-NS5A specific genotype(isolate) recombinants. For details on the 5-5A virus stocks see FIG. 3. J6/JFH1 was a first-passage stock with no mutations in the ORF. Cultures were treated with seven protease inhibitors and the NS5A inhibitor daclatasvir. Values are means of triplicates in the experiment with ±SEM.
(§2) HCV DAAs were purchased from Acme Bioscience and dissolved in dimethyl sulfoxide (Sigma). High throughput treatment assays have been previously established. Concentration-response curves, EC50 values, and 95% confidence interval were calculated in GraphPad Prism 5 as described. Cytotoxicity assays to determine the non-cytotoxic dose range of the anti-HCV drugs were performed.
(§3) Since no mutations appeared in the NS3 protease region in first-passage 5-5A recombinants, these culture viruses could be ideal models for studying the efficacy of PIs in a genotype-specific manner. We thus generated virus stocks from first-passage 1a(H77 and TN) and second-passage 3a(S52), 4a(ED43), 5a(SA13), and 6a(HK6a) 5-5A viruses (FIG. 3) for PI treatment experiments. Additionally, we generated a first-passage stock of 2a J6/JFH1. We confirmed that virus stocks used for treatment were without NS3 protease mutations (FIGS. 5-9). We tested virus sensitivity to the most advanced PIs: telaprevir (VX-950), boceprevir (SCH503034), asunaprevir (BMS-650032), simeprevir (TMC435350), vaniprevir (MK-7009), faldaprevir (BI201335), and MK-5172. […] The median effective concentration (EC50) representing the efficacy of drugs against the treated viruses was calculated from the concentration-response curves (FIGS. 2, 4 and 10). For a given inhibitor, EC50 fold-differences relative to J6/JFH1 were calculated for each genotype recombinant and used to describe whether a recombinant was more sensitive (fold-difference <1) or resistant (fold-difference >1) than J6/JFH1.

[2] = test system: 1a(TN) 5'UTR-NS5A recombinant virus; assay: High-throughput DAA treatment assay of infected Huh7.5 cells, 1a(TN)5-5A virus; settings: 1a(TN)5-5A virus more sensitive than J6/JFH1
Experimental: as §1, §2
(§4) Since no mutations appeared in the NS3 protease region in first-passage 5-5A recombinants, these culture viruses could be ideal models for studying the efficacy of PIs in a genotype-specific manner. […] The median effective concentration (EC50) representing the efficacy of drugs against the treated viruses was calculated from the concentration-response curves (FIGS. 2, 4 and 10). For a given inhibitor, EC50 fold-differences relative to J6/JFH1 were calculated for each genotype recombinant and used to describe whether a recombinant was more sensitive (fold-difference <1) or resistant (fold-difference >1) than J6/JFH1.

[3] = test system: HCV genotype 1-6 recombinant viruses; assay: High-throughput DAA treatment assay of infected Huh7.5 cells, whole panel of genotype 1-6 recombinant viruses; settings: concentration-response
Experimental: as §1, §2, §3

[4] = test system: 1a(H77) 5'UTR-NS5A recombinant virus; assay: High-throughput DAA treatment assay of infected Huh7.5 cells, 1a(H77)5-5A virus; settings: difference in sensitivity compared to J6/JFH1
Experimental: as §1, §2, §4

[5] = test system: 5a(SA13) 5'UTR-NS5A recombinant virus; assay: High-throughput DAA treatment assay of infected Huh7.5 cells, 5a(SA13)5-5A virus; settings: difference in sensitivity compared to J6/JFH1
Experimental: as §1, §2, §4

SMILES | Resistance of 3a(S52)5-5A relative to that to MK-5172 [1] [fold] | EC50 fold-difference relative to J6/JFH1, more sensitive [2] | Inhibition of genotype 1-6 recombinant viruses [3] | EC50 fold-difference from J6/JFH1 [4] | EC50 fold-difference from J6/JFH1 [5]
C=C[C@@H]1C[C@]1(NC(=O)[C@@H]1C[C@@H](Oc2ncc(OC)c3ccc(Cl)cc23)CN1C(=O)[C@@H](NC(=O)OC(C)(C)C)C(C)(C)C)C(=O)NS(=O)(=O)C1CC1 [asunaprevir] | > 60 |  |  |  | 
CC(C)(C)NC(=O)N[C@H](C(=O)N1C[C@H]2[C@@H]([C@H]1C(=O)NC(CC1CCC1)C(=O)C(N)=O)C2(C)C)C(C)(C)C (stereo partly drawn) [boceprevir] | > 60 | 2-3 fold | concentration-dependently inhibited | less than 2 fold | less than 2 fold
COC(=O)N[C@H](C(=O)N1CCC[C@H]1c1nc(-c2ccc(-c3ccc(-c4c[nH]c([C@@H]5CCCN5C(=O)[C@@H](NC(=O)OC)C(C)C)n4)cc3)cc2)c[nH]1)C(C)C [daclatasvir] |  |  | concentration-dependently inhibited |  | 
CC[C@@H]1C[C@]1(NC(=O)[C@@H]1C[C@@H]2CN1C(=O)[C@H](C(C)(C)C)NC(=O)OCC(C)(C)CCCCc1cccc3c1CN(C3)C(=O)O2)C(=O)NS(=O)(=O)C1CC1 [vaniprevir] | > 60 |  |  |  | 
COc1ccc2c(O[C@@H]3C[C@H]4C(=O)N[C@]5(C(=O)NS(=O)(=O)C6CC6)C[C@H]5/C=C\CCCCN(C)C(=O)[C@@H]4C3)cc(-c3nc(C(C)C)cs3)nc2c1C [simeprevir] | > 60 |  |  |  | 
CCC[C@H](NC(=O)[C@@H]1[C@H]2CCC[C@H]2CN1C(=O)[C@@H](NC(=O)[C@@H](NC(=O)c1cnccn1)C1CCCCC1)C(C)(C)C)C(=O)C(=O)NC1CC1 [telaprevir] | > 60 | 2-3 fold | concentration-dependently inhibited | less than 2 fold | less than 2 fold
C=C[C@@H]1C[C@]1(NC(=O)[C@@H]1C[C@@H](Oc2cc(-c3csc(NC(=O)C(C)C)n3)nc3c(Br)c(OC)ccc23)CN1C(=O)[C@@H](NC(=O)OC1CCCC1)C(C)(C)C)C(=O)O [faldaprevir] | > 60 |  |  |  | 
